No constants are given. Whether binding was seen depends on the method and setting. Sequences can lack the tags named with a protein.
Target: T1, TFPI2-Fc (Fc-tagged TFPI2) (UniProt P48307)
T1 sequence: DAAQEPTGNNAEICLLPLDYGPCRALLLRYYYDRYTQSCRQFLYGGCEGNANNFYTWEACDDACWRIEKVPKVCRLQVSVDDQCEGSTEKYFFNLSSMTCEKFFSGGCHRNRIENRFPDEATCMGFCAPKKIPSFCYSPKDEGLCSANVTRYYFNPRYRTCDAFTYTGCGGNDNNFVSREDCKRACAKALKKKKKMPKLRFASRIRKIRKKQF
Experiment: BLI; […] (10 ug/mL) […] (BLItz, ForteBio), […] (0.5% BSA); […]; dissociation in DPBS (0.5% BSA); both purified

## TcdB4.2 (full-length recombinant toxin B variant 4.2) (Clostridioides difficile)
  binding: no binding (tested: 500 nM)

Reference: PMC9646764
